From US20100143506A1, “APPARATUS AND METHOD FOR TREATMENT OF MICROORGANISMS DURING SUGAR PRODUCTION AND SUGAR-BASED FE[…]” (priority 2008, published 2010)

Assay: Chlorite, chlorate and chloride residuals in thin juice samples
Conditions: 20 ppm chlorine dioxide introduced into the thin juice line

SMILES: [O][Cl+][O-] [chlorine dioxide]
- chlorate residuals: not detected
- chloride concentrations: within the same range as baseline
- chlorite residuals: not detected
